In PubChem BioAssay AID624297 (National Center for Advancing Translational Sciences (NCATS), 2012):
Among all 340,000 compounds or so, about 6,200 (1.8%) were called active. The shares of active, inactive and inconclusive entries below differ from those in the screen. The call rests on the fitted dose curve; in most records, active means well fitted activation curve with a large enough effect; inconclusive means small, poorly fitted or top-dose-only effect; inactive means no such curve, though single readings can be large or run the other way. Where the call is inconclusive, the potency comes from a doubtful curve fit.

assay: A quantitative high throughput screen for small molecules that induce DNA re-replication in SW480 colon adenocarcinoma cells.; further: nearly all actives have a fitted effect of over 55% in size; on re-replication activation: % of control where 0% means no effect; conditions: Hoechst DNA content imaging, 48 h; re-replication activation: at 46.1 µM (top of the series) unless noted
Procedure, shortened: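 First, 250 cells per well were seeded. Next, compound or vehicle (23 nL) was pinned in, plates sat 48 hr at 37 C. Finally Hoechst was added for 40 min before fluorescence scanning.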
Potency means the concentration at half of the fitted maximal effect.

Row | Structure (SMILES) | Potency | re-replication activation
1 | Cc1nc2ccc(Br)cn2c1NC(C)(C)C | inconclusive: 29.1 µM [activator, partial curve, poor fit] | 
2 | CC1CCCCC12NC(=O)N(CC(=O)c1ccc(Cl)s1)C2=O (stereo unspecified) | inconclusive: 0.731 µM [activator, partial curve, poor fit] | 
3 | O=C(N/N=C/c1cccs1)c1n[nH]c2c1CCCC2 | inconclusive: 23.1 µM [activator, single point] | 
4 | O=C(CCN1C(=O)NC2(CCCC2)C1=O)Nc1ccc(-c2nc3ccccc3s2)cc1 | active: 16.4 µM | 
5 | Fc1ccc2[nH]c3c(N4CCN(Cc5ccc6c(c5)OCO6)CC4)ncnc3c2c1 | inconclusive: 29.1 µM [activator, single point] | 
6 | CCCOP(=O)(OCCC)c1c([N+](=O)[O-])cc(C(F)(F)F)cc1[N+](=O)[O-] | active: 18.4 µM | 
7 | O=[N+]([O-])c1ccc2[nH]c3nc4ccccc4nc3c2c1 |  | inactive: 8.71%
8 | CCn1c(=O)c2c(nc3n2CCCN3c2cccc(C)c2)n(C)c1=O | inconclusive: 29.1 µM [activator, single point] | 
9 | CCOc1ccc2oc(C(=O)NCc3ccccc3CN3CCCC3)c(C)c2c1 | inconclusive: 14.6 µM [activator, partial curve, poor fit] | 
10 | CSCC[C@H](NC(=O)Cc1c(C)c2cc3c4c(oc3cc2oc1=O)CCCC4)C(=O)O |  | inactive: -23.8%
11 | Cc1cccc(C(=O)Nc2cccc(C(=O)N/N=C/c3ccc4c(c3)OCO4)c2)c1 | active: 23.1 µM | 
12 | CSC1=NCCN1C(=O)C12CC3CC(CC(C3)C1)C2 |  | inactive: -7.15%
13 | COc1cc(C(=O)NC2CCN(C)CC2)ccc1Nc1ncc2c(n1)N(C1CCCCC1)CCC(=O)N2C | active: 1.46 µM | 
14 | CC(C)c1ccc(CN2CCN(C(=O)CCl)CC2)cc1 | inconclusive: 2.31 µM [activator, full curve, poor fit] | 
15 | Cc1ccc(S(=O)(=O)NCCC2=CCCCC2)cc1 |  | inactive: -0.858%
16 | CC(C(c1ccc2c(c1)OCO2)c1c(N)n(C)c(=O)n(C)c1=O)[N+](=O)[O-] (stereo unspecified) | inconclusive: 29.1 µM [activator, single point] | 
17 | NNC(=O)C(=O)Nc1ccc(O)cc1 |  | inactive: -29.1%
18 | COc1ccc(/C=C(/NC(=O)c2ccccc2)C(=O)Nc2cccc(C(=O)O)c2)cc1 | inconclusive: 29.1 µM [activator, single point] | 
19 | COc1ccc(OC)c2nc3c(C(=O)NCCN(C)C)cccc3nc12 | inconclusive: 16.4 µM [activator, partial curve, poor fit] | 
20 | COc1ccc(C(=O)Oc2cccc(/C=N/NC(N)=S)c2)cc1 | inconclusive: 6.51 µM [activator, single point] | 
21 | CCOC(=O)C1=C(C)NC2=C(C(=O)C(C(=O)OCC)C(c3ccco3)C2)C1c1ccccn1 (stereo unspecified) | active: 6.51 µM | 
22 | CCN(CC)C(=O)NCc1c(C)cc(C)cc1C |  | inactive: -3.66%
23 | O=C1NC2(CCC3(CC2)OCCO3)NN1c1ccc(Cl)cc1 | inconclusive: 23.1 µM [activator, single point] | 

Filtered by structure, the entries above containing four or more nitrogen atoms.
Row | Structure (SMILES) | Potency | re-replication activation
3 | O=C(N/N=C/c1cccs1)c1n[nH]c2c1CCCC2 | inconclusive: 23.1 µM [activator, single point] | 
4 | O=C(CCN1C(=O)NC2(CCCC2)C1=O)Nc1ccc(-c2nc3ccccc3s2)cc1 | active: 16.4 µM | 
5 | Fc1ccc2[nH]c3c(N4CCN(Cc5ccc6c(c5)OCO6)CC4)ncnc3c2c1 | inconclusive: 29.1 µM [activator, single point] | 
7 | O=[N+]([O-])c1ccc2[nH]c3nc4ccccc4nc3c2c1 |  | inactive: 8.71%
8 | CCn1c(=O)c2c(nc3n2CCCN3c2cccc(C)c2)n(C)c1=O | inconclusive: 29.1 µM [activator, single point] | 
13 | COc1cc(C(=O)NC2CCN(C)CC2)ccc1Nc1ncc2c(n1)N(C1CCCCC1)CCC(=O)N2C | active: 1.46 µM | 
16 | CC(C(c1ccc2c(c1)OCO2)c1c(N)n(C)c(=O)n(C)c1=O)[N+](=O)[O-] (stereo unspecified) | inconclusive: 29.1 µM [activator, single point] | 
19 | COc1ccc(OC)c2nc3c(C(=O)NCCN(C)C)cccc3nc12 | inconclusive: 16.4 µM [activator, partial curve, poor fit] | 

The list continues.

Row | Structure (SMILES) | Potency | re-replication activation
24 | CCOc1ccc(/C=N/NC(=O)c2cc(-c3ccco3)nc3ccccc23)cc1 | inconclusive: 18.4 µM [activator, single point] | 
25 | NC1(C(=O)O)CSSC1 | inconclusive: 23.1 µM [activator, single point] | 
26 | COc1cccc(CSc2nc3cc4c(cc3cc2C)OCCO4)c1 | inconclusive: 18.4 µM [activator, single point] | 
27 | CCc1ccc(OCC(=O)NC2CCCCC2)c(Br)c1 | inconclusive: 23.1 µM [activator, single point] | 
28 | Cn1c(/C=C/c2cccc(Br)c2)nc2ccccc2c1=O | active: 18.4 µM | 
29 | COc1ccc(OCC(O)Cn2c(=N)n(Cc3ccccc3)c3ccccc32)cc1 (stereo unspecified) | inconclusive: 25.9 µM [activator, single point] | 
30 | Cc1[nH]c2c(ccc3ccccc32)c1C1C(CCN)C1(C)C (stereo unspecified) | inconclusive: 23.1 µM [activator, single point] | 
31 | NS(=O)(=O)c1ccc(Nc2nc(-c3ccc(O)cc3O)cs2)cc1 |  | inactive: -3.45%
32 | COc1ccc(CCNC(=O)CN(c2ccccc2OC)S(=O)(=O)c2ccc(C)cc2)cc1 | inconclusive: 29.1 µM [activator, partial curve, poor fit] | 
33 | CCOC(=O)c1c(C)[nH]c(C)c1S(=O)(=O)NCCCc1ccco1 | inconclusive: 0.058 µM [activator, full curve, poor fit] | 
34 | Cc1ccc(SCCNC(=O)c2cccc([N+](=O)[O-])c2C)cc1 | inconclusive: 29.1 µM [activator, single point] | 
35 | Cc1ccc(N(C(=O)c2ccco2)C2C=CS(=O)(=O)C2)cc1 (stereo unspecified) |  | inactive: 1.66%
36 | Cc1ccc(-c2nc(C3CCCN(S(=O)(=O)c4ccc(C(F)(F)F)cc4)C3)no2)cc1 (stereo unspecified) | inconclusive: 3.26 µM [activator, partial curve, poor fit] | 
37 | Cn1c(=O)c2cc(S(=O)(=O)Nc3cc(C(=O)O)cc(C(=O)O)c3)ccc2n(C)c1=O |  | inactive: -133%
38 | Cn1c(=O)c2c(ncn2CC(=O)OCC(=O)c2ccc(Cl)cc2)n(C)c1=O |  | inactive: -0.771%
39 | O=C(CN1C(=O)NC2(CCCCC2)C1=O)Nc1cccc2ncccc12 | active: 20.6 µM | 
40 | Cc1ccc(C(=O)NC(=S)Nc2ccc(-c3cc4ccccc4oc3=O)cc2)c(C)c1 |  | inactive: -11.2%
41 | CC(C)(CNc1ccc([N+](=O)[O-])cc1C#N)N1CCOCC1 |  | inactive: -3.19%
42 | Cc1cccc(C)c1N1CCN(C(=O)Nc2ccc3c(c2)OCCO3)CC1 |  | inactive: 8.73%
43 | CC1CCCN(CCCOc2ccccc2-c2ccccc2)C1 (stereo unspecified) |  | inactive: 27%
44 | CC(=C/c1ccccc1)/C=N/NC(=O)c1nnn(-c2nonc2N)c1CN1CCC(C)CC1 | inconclusive: 16.4 µM [activator, single point] | 
45 | C=CC[n+]1c(-c2ccc(C)cc2)csc1NNC(=O)Nc1ccccc1 | inconclusive: 29.1 µM [activator, single point] | 
46 | Cc1c(-c2cccc(Cl)c2)nc2ccccc2c1C(=O)OC/C(O)=C(\C#N)c1nc2ccccc2[nH]1 | inconclusive: 23.1 µM [activator, single point] | 
